# According to the supplement of paper PMC8728848:
# This is one part of the list.
# B1: GST-Gap1 (Streptococcus parasanguinis), A1C3L5 (protein)
# chain: MFYFVPSWYNGQRQWYYDTPWWFRVKNRMTFDDSVNQVKMFLQGQEEIGLMILNYQPQLRYFLHKQNIFGIYYWSFFDDIQNITRSYTKIIHLKDLNWPEGCEFLYSPFAVVVRLKGEIFAIVNYAEDGNLHSVSFQKNGKVTKDYIFDDRGFLSSILYYDIDERPLYQDYLNINGVWQVREFLKKENDPTPILMINDFSDQTFSKKYYNGWEELIKERLAIFQNNHVENEDVFVLASDTQHNQLVSSIFKEHRKIYSFFGNRFNLENLGQDRISINDATFLVVDTEKNEELLRKTCENLVFKSIPIVRLSPFDSRLRLGHSQTVKEQIIYFHIDNIELDELYSVIAIILELMTLHLDIELRIVTFRQDFQLDLLKTWIIDFIKTNHFEDLLFKQISEGENEIEDEGEIELSRIAMECFTNENQIIKCLDTARLVIDLGIEPDLYTQIASISAGIPQINRVSSDYVIHQKNGLVISDISKLSSAIEFYFDGLFNWNEALIYAVRKMSDYTSGKILKQWKGMLKKK
# How the values were obtained:
# Experiment in all cases: glycan array binding signal (z-score within array); higher = stronger binding
# Details in all cases: glycan notation: IUPAC condensed, linker removed
# [1] = biological target: Gal(b1-3)GlcNAc(b1-2)Man(a1-3)[Gal(b1-3)GlcNAc(b1-2)Man(a1-6)]Man(b1-4)GlcNAc(b1-4)GlcNAc
# Outline: (§1)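 The binding signal is a Z-score computed within each array and averaged over linkers. Arrays of the same protein sequence at different concentrations or buffers were also averaged together. Data originate from 3228 arrays in the Consortium for Functional Glycomics database, kept only where the protein sequence was available.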
# [2] = biological target: Gal(b1-3)GlcNAc(b1-2)Man(a1-3)[Gal(b1-3)GlcNAc(b1-2)Man(a1-6)]Man(b1-4)GlcNAc(b1-4)[Fuc(a1-6)]GlcNAc
# Outline: as §1
# [3] = biological target: Gal(b1-3)GlcNAc(b1-2)Man(a1-3)[GlcNAc(b1-4)][Gal(b1-3)GlcNAc(b1-2)Man(a1-6)]Man(b1-4)GlcNAc(b1-4)GlcNAc
# Outline: as §1
# [4] = biological target: Gal(b1-3)GlcNAc(b1-2)[Gal(b1-3)GlcNAc(b1-6)]Man(a1-6)[Gal(b1-3)GlcNAc(b1-2)Man(a1-3)]Man(b1-4)GlcNAc(b1-4)GlcNAc
# Outline: as §1
# [5] = biological target: Gal(b1-3)GlcNAc(b1-3)Gal(b1-3)GlcNAc
# Outline: as §1
# [6] = biological target: Gal(b1-3)GlcNAc(b1-3)Gal(b1-4)Glc
# Outline: as §1
# [7] = biological target: Gal(b1-3)GlcNAc(b1-3)Gal(b1-4)GlcNAc
# Outline: as §1
# [8] = biological target: Gal(b1-3)GlcNAc(b1-3)Gal(b1-4)GlcNAc(b1-2)Man(a1-3)[Gal(b1-3)GlcNAc(b1-3)Gal(b1-4)GlcNAc(b1-2)Man(a1-6)]Man(b1-4)GlcNAc(b1-4)GlcNAc
# Outline: as §1
# [9] = biological target: Gal(b1-3)GlcNAc(b1-3)Gal(b1-4)GlcNAc(b1-2)[Gal(b1-3)GlcNAc(b1-3)Gal(b1-4)GlcNAc(b1-6)]Man(a1-6)[Gal(b1-3)GlcNAc(b1-3)Gal(b1-4)GlcNAc(b1-2)Man(a1-3)]Man(b1-4)GlcNAc(b1-4)[Fuc(a1-6)]GlcNAc
# Outline: as §1
# [10] = biological target: Gal(b1-3)GlcNAc(b1-3)Gal(b1-4)GlcNAc(b1-3)Gal(b1-4)GlcNAc(b1-2)[Gal(b1-3)GlcNAc(b1-3)Gal(b1-4)GlcNAc(b1-3)Gal(b1-4)GlcNAc(b1-6)]Man(a1-6)[Gal(b1-3)GlcNAc(b1-3)Gal(b1-4)GlcNAc(b1-3)Gal(b1-4)GlcNAc(b1-2)Man(a1-3)]Man(b1-4)GlcNAc(b1-4)[Fuc(a1-6)]GlcNAc
# Outline: as §1
# [11] = biological target: Gal(b1-3)GlcNAc(b1-3)Gal(b1-4)GlcNAc(b1-6)[Gal(b1-3)GlcNAc(b1-3)]Gal(b1-4)Glc
# Outline: as §1
# [12] = biological target: Gal(b1-3)GlcNAc(b1-3)Gal(b1-4)[Fuc(a1-3)]GlcNAc
# Outline: as §1
# [13] = biological target: Gal(b1-3)GlcNAc(b1-3)Gal(b1-4)[Fuc(a1-3)]GlcNAc(b1-6)[Gal(b1-3)GlcNAc(b1-3)]Gal(b1-4)Glc
# Outline: as §1
# [14] = biological target: Gal(b1-3)GlcNAc(b1-3)GalNAc
# Outline: as §1
# [15] = biological target: Gal(b1-3)GlcNAc(b1-6)Gal(b1-4)GlcNAc
# Outline: as §1
# [16] = biological target: Gal(b1-3)GlcNAc(b1-6)GalNAc
# Outline: as §1
# [17] = biological target: Gal(b1-3)GlcNAc(b1-6)[Gal(b1-3)]GalNAc
# Outline: as §1
# Gal(b1-3)GlcNAc6S = biological target: Gal(b1-3)GlcNAc6S
# Outline: as §1
# [18] = biological target: Gal(b1-3)[Fuc(a1-4)]GlcNAc
# Outline: as §1
# [19] = biological target: Gal(b1-3)[Fuc(a1-4)]GlcNAc(b1-2)Man
# Outline: as §1
# [20] = biological target: Gal(b1-3)[Fuc(a1-4)]GlcNAc(b1-2)Man(a1-3)[Gal(b1-3)[Fuc(a1-4)]GlcNAc(b1-2)Man(a1-6)]Man(b1-4)GlcNAc(b1-4)GlcNAc
# Outline: as §1
# [21] = biological target: Gal(b1-3)[Fuc(a1-4)]GlcNAc(b1-2)Man(a1-3)[Gal(b1-3)[Fuc(a1-4)]GlcNAc(b1-2)Man(a1-6)]Man(b1-4)GlcNAc(b1-4)[Fuc(a1-6)]GlcNAc
# Outline: as §1
# [22] = biological target: Gal(b1-3)[Fuc(a1-4)]GlcNAc(b1-3)Gal(b1-3)[Fuc(a1-4)]GlcNAc
# Outline: as §1
# [23] = biological target: Gal(b1-3)[Fuc(a1-4)]GlcNAc(b1-3)Gal(b1-4)GlcNAc
# Outline: as §1
# [24] = biological target: Gal(b1-3)[Fuc(a1-4)]GlcNAc(b1-3)Gal(b1-4)[Fuc(a1-3)]GlcNAc
# Outline: as §1
# [25] = biological target: Gal(b1-3)[Fuc(a1-4)]GlcNAc(b1-6)GalNAc
# Outline: as §1
# [26] = biological target: Gal(b1-3)[GlcNAc(b1-6)]GalNAc
# Outline: as §1
# [27] = biological target: Gal(b1-3)[Neu5Ac(a2-6)]GalNAc
# Outline: as §1
# [28] = biological target: Gal(b1-3)[Neu5Ac(a2-6)]GlcNAc(b1-4)Gal(b1-4)Glc
# Outline: as §1
# [29] = biological target: Gal(b1-3)[Neu5Ac(a2-6)]GlcNAc(b1-6)Gal(b1-4)Glc
# Outline: as §1
# [30] = biological target: Gal(b1-3)[Neu5Ac(b2-6)]GalNAc
# Outline: as §1
# Gal(b1-4)Gal = biological target: Gal(b1-4)Gal
# Outline: as §1
# [31] = biological target: Gal(b1-4)GalNAc(a1-3)[Fuc(a1-2)]Gal(b1-4)GlcNAc
# Outline: as §1
# [32] = biological target: Gal(b1-4)GalNAc(b1-3)[Fuc(a1-2)]Gal(b1-4)GlcNAc
# Outline: as §1
# Gal(b1-4)Glc = biological target: Gal(b1-4)Glc
# Outline: as §1
# Gal(b1-4)Glc6S = biological target: Gal(b1-4)Glc6S
# Outline: as §1
# Gal(b1-4)GlcNAc = biological target: Gal(b1-4)GlcNAc
# Outline: as §1
# [33] = biological target: Gal(b1-4)GlcNAc(a1-6)Gal(b1-4)GlcNAc
# Outline: as §1
binder,measurement,setting,value
B1,glycan array binding signal (z-score),[1],0.828
same,glycan array binding signal (z-score),[2],0.267
same,glycan array binding signal (z-score),[3],-1.62
same,glycan array binding signal (z-score),[4],1.95
same,glycan array binding signal (z-score),[5],0.343
same,glycan array binding signal (z-score),[6],0.424
same,glycan array binding signal (z-score),[7],0.226
same,glycan array binding signal (z-score),[8],0.301
same,glycan array binding signal (z-score),[9],2.25
same,glycan array binding signal (z-score),[10],3.43
same,glycan array binding signal (z-score),[11],0.101
same,glycan array binding signal (z-score),[12],-0.205
same,glycan array binding signal (z-score),[13],0.114
same,glycan array binding signal (z-score),[14],-0.668
same,glycan array binding signal (z-score),[15],0.275
same,glycan array binding signal (z-score),[16],0.494
same,glycan array binding signal (z-score),[17],-0.464
same,glycan array binding signal (z-score),Gal(b1-3)GlcNAc6S,0.02
same,glycan array binding signal (z-score),[18],-0.15
same,glycan array binding signal (z-score),[19],1.62
same,glycan array binding signal (z-score),[20],0.615
same,glycan array binding signal (z-score),[21],-0.186
same,glycan array binding signal (z-score),[22],-0.697
same,glycan array binding signal (z-score),[23],-0.318
same,glycan array binding signal (z-score),[24],-0.616
same,glycan array binding signal (z-score),[25],-0.119
same,glycan array binding signal (z-score),[26],-0.334
same,glycan array binding signal (z-score),[27],0.3
same,glycan array binding signal (z-score),[28],1.22
same,glycan array binding signal (z-score),[29],-0.547
same,glycan array binding signal (z-score),[30],-0.046
same,glycan array binding signal (z-score),Gal(b1-4)Gal,-0.435
same,glycan array binding signal (z-score),[31],0.045
same,glycan array binding signal (z-score),[32],0.011
same,glycan array binding signal (z-score),Gal(b1-4)Glc,-0.597
same,glycan array binding signal (z-score),Gal(b1-4)Glc6S,-0.399
same,glycan array binding signal (z-score),Gal(b1-4)GlcNAc,0.236
same,glycan array binding signal (z-score),[33],-0.124

# In a second layout: entries from further up.
binder	measurement	setting	value
B1	glycan array binding signal (z-score)	[24]	-0.616
same	glycan array binding signal (z-score)	Gal(b1-4)GlcNAc	0.236
